PubChem BioAssay AID1259424 – University of Nebraska Medical Center – 2018
Screen: 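Rank knockdowns across the genome by resemblance to the KSR1 depletion profile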 (primary screen). Cell system: human HCT116 colon cancer cells. Knock-down reagent: siRNA pool against human genes, 50 nM. Detection: 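Six signature mRNAs by branched-DNA multiplex assay, scaled to two housekeeping genes and non-targeting median, log2; matched to mean KSR1 knockdown profile by Pearson correlation and euclidean distance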. Direction: mean correlation with KSR1 profile and KSR1 correlation: higher = expression change more like KSR1 knockdown; mean distance from KSR1 profile: higher = expression change less like KSR1 knockdown.
Shown is an unselected part of about 14,000 deposited reagents. 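Higher correlation or smaller distance means closer resemblance to KSR1 loss; control wells, including KSR1 knockdowns, recur on many plates.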 No sequences are given here. Not stated in the record: the time to read-out.

gene,PubChem SID,mean correlation with KSR1 profile,mean distance from KSR1 profile,"KSR1 correlation, replicate 1","KSR1 correlation, replicate 2","KSR1 correlation, replicate 3"
ARSJ,SID364002895,0.752,1.61,0.789,0.719,0.799
GTPBP8,SID363998627,0.367,1.38,0.00608,0.276,0.269
DUSP2,SID363995400,0.955,2,0.827,0.767,0.726
MTMR7,SID364005168,-0.713,2.28,-0.62,-0.801,-0.615
ZNF3,SID364000466,-0.103,1.64,0.0673,-0.221,-0.128
NDUFB2,SID363995518,-0.277,2.94,-0.0801,-0.264,-0.3
OR2J2,SID364003482,0.648,1.71,0.721,0.797,0.38
NACC1,SID364004408,-0.066,2,0.348,-0.213,-0.00869
EEF1B2,SID363993171,0.469,1.82,0.34,0.612,0.437
ATG9A,SID364002737,-0.169,2.23,-0.243,-0.356,-0.305
ITSN2,SID363997099,0.377,2.44,0.345,0.449,0.201
MAPK10,SID363993911,0.93,0.489,0.935,0.923,0.923
SMARCE1,SID363994224,-0.311,4.4,-0.00957,0.129,-0.384
SLC3A1,SID363991673,-0.248,1.9,0.0876,-0.621,-0.324
KCNV1,SID363998801,-0.0293,2.19,-0.042,-0.154,-0.156
ATP6V0A4,SID364001738,-0.179,1.92,-0.371,-0.151,-0.203
SYT7,SID363995202,-0.0466,1.73,0.245,0.235,-0.257
TRPM7,SID364000436,0.892,0.91,0.866,0.977,-0.0824
RGS12,SID363994080,0.948,3.59,0.937,0.944,0.823
TNK1,SID363995038,-0.172,2.17,-0.201,0.182,-0.526
NT5DC3,SID364000205,0.318,2.19,0.371,0.24,0.225
RIPPLY3,SID364001288,0.0314,1.16,-0.214,0.476,-0.432
ORM1,SID363991925,0.56,1.55,0.736,0.696,0.401
PRELID1,SID363998361,0.195,1.59,0.0846,0.165,-0.143
ANK3,SID363992441,0.261,1.3,0.288,0.386,-0.0423
CLNS1A,SID363992577,-0.276,2.61,-0.52,-0.13,-0.295
SRF,SID363994272,0.386,2.57,0.619,0.665,0.127
SIRT3,SID363998163,-0.798,1.9,-0.6,-0.523,-0.713
GBP2,SID363995130,0.13,2.07,0.182,0.104,0.0027
RAP2A,SID364001967,-0.135,1.99,-0.364,0.249,-0.368
ATP6V0C,SID363992916,-0.155,5.98,-0.183,-0.169,-0.241
USP9Y,SID363995620,0.0797,1.34,0.0936,0.0197,-0.0131
BTN3A2,SID363997778,0.393,1.26,0.386,0.334,0.362
ABLIM2,SID364003980,0.173,1.66,0.39,0.301,0.0626
PCGF3,SID363997137,0.462,1.23,0.331,0.447,0.455
AMBN,SID364000165,-0.254,2.15,-0.208,-0.356,-0.39
VDR,SID363991707,-0.523,2.37,-0.395,-0.635,-0.219
TPMT,SID363991698,0.367,1.64,0.316,0.396,0.344
SNAI1,SID363996841,0.199,2.2,0.156,0.35,0.105
IL17RD,SID364000360,-0.0494,3.59,0.00976,0.142,-0.196
DCAF6,SID364001075,-0.243,3.22,-0.0057,-0.274,0.0169
CRIM1,SID364000108,-0.317,1.31,-0.484,-0.271,0.224
NDUFAB1,SID363995942,-0.0483,1.32,0.19,-0.0814,-0.0309
CTSH,SID363995374,0.155,2.69,-0.0906,0.29,0.275
GLOD4,SID363999853,-0.549,1.05,0.00559,-0.622,-0.444
SEC14L1,SID363994153,-0.0317,1.75,-0.531,0.151,0.0646
MYO3A,SID364000311,-0.0622,3.61,0.106,0.111,-0.223
CCR9,SID363997429,0.526,1.58,0.516,0.594,0.477
DLEU2,SID363996873,0.352,3.53,0.472,0.153,0.267
ANKRD53,SID364003170,0.647,1.52,0.578,0.771,0.649
SLC25A2,SID364003717,0.886,1.35,0.747,0.767,0.896
CFHR2,SID363996557,-0.155,2.45,-0.32,-0.196,-0.249
HHLA1,SID363996598,0.677,1.88,0.833,0.248,0.402
TESPA1,SID364005512,0.118,1.5,0.247,0.174,0.0468
ADAMTS1,SID363997725,-0.651,2.48,-0.706,-0.483,-0.732
PPP1R15B,SID364004211,0.227,2.24,0.17,0.183,0.274
MAPKBP1,SID363999243,-0.196,1.57,-0.0948,-0.404,-0.0677
SLC25A27,SID363995272,-0.0981,2.88,-0.199,-0.182,-0.154
PREPL,SID363996887,-0.589,3.11,-0.453,-0.546,-0.568
RGS5,SID363994695,0.711,1.61,0.781,0.749,0.698
UBE2D3,SID363994456,0.25,2.95,0.279,0.138,0.238
NDUFB10,SID363995519,0.399,1.09,0.5,0.46,0.234
TOB2,SID363999998,0.181,2.35,0.0555,0.279,-0.0687

8 entries from above, ordered by “mean correlation with KSR1 profile”, highest first.
gene,PubChem SID,mean correlation with KSR1 profile,mean distance from KSR1 profile,"KSR1 correlation, replicate 1","KSR1 correlation, replicate 2","KSR1 correlation, replicate 3"
RGS5,SID363994695,0.711,1.61,0.781,0.749,0.698
NDUFB10,SID363995519,0.399,1.09,0.5,0.46,0.234
UBE2D3,SID363994456,0.25,2.95,0.279,0.138,0.238
PPP1R15B,SID364004211,0.227,2.24,0.17,0.183,0.274
TOB2,SID363999998,0.181,2.35,0.0555,0.279,-0.0687
SLC25A27,SID363995272,-0.0981,2.88,-0.199,-0.182,-0.154
MAPKBP1,SID363999243,-0.196,1.57,-0.0948,-0.404,-0.0677
PREPL,SID363996887,-0.589,3.11,-0.453,-0.546,-0.568
